The text below walks through data of article PMC5271409.

Amino acid sequences for entries named in this document (tags omitted).
UniProt Q86WV6: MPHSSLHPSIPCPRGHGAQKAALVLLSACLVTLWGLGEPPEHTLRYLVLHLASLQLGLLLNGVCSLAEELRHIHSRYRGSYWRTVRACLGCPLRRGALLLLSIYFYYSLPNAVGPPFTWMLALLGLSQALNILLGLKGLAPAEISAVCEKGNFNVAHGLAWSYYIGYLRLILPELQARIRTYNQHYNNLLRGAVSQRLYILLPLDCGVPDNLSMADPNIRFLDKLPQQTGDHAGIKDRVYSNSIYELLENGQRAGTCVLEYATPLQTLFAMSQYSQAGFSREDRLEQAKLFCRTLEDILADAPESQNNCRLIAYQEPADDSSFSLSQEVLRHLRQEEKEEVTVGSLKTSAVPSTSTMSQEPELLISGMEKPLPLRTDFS

To fix the notation:
B1: TBK1 (protein, UniProt Q9UHD2 1-729)
chain: MQSTSNHLWLLSDILGQGATANVFRGRHKKTGDLFAIKVFNNISFLRPVDVQMREFEVLKKLNHKNIVKLFAIEEETTTRHKVLIMEFCPCGSLYTVLEEPSNAYGLPESEFLIVLRDVVGGMNHLRENGIVHRDIKPGNIMRVIGEDGQSVYKLTDFGAARELEDDEQFVSLYGTEEYLHPDMYERAVLRKDHQKKYGATVDLWSIGVTFYHAATGSLPFRPFEGPRRNKEVMYKIITGKPSGAISGVQKAENGPIDWSGDMPVSCSLSRGLQVLLTPVLANILEADQEKCWGFDQFFAETSDILHRMVIHVFSLQQMTAHKIYIHSYNTATIFHELVYKQTKIISSNQELIYEGRRLVLEPGRLAQHFPKTTEENPIFVVSREPLNTIGLIYEKISLPKVHPRYDLDGDASMAKAITGVVCYACRIASTLLLYQELMRKGIRWLIELIKDDYNETVHKKTEVVITLDFCIRNIEKTVKVYEKLMKINLEAAELGEISDIHTKLLRLSSSQGTIETSLQDIDSRLSPGGSLADAWAHQEGTHPKDRNVEKLQVLLNCMTEIYYQFKKDKAERRLAYNEEQIHKFDKQKLYYHATKAMTHFTDECVKKYEAFLNKSEEWIRKMLHLRKQLLSLTNQCFDIEEEVSKYQEYTNELQETLPQKMFTASSGIKHTMTPIYPSSNTLVEMTLGMKKLKEEMEGVVKELAENNHILERFGSLTMDGGLRNVDCL
B2: IRF3 (protein, UniProt Q14653 1-427)
chain: MGTPKPRILPWLVSQLDLGQLEGVAWVNKSRTRFRIPWKHGLRQDAQQEDFGIFQAWAEATGAYVPGRDKPDLPTWKRNFRSALNRKEGLRLAEDRSKDPHDPHKIYEFVNSGVGDFSQPDTSPDTNGGGSTSDTQEDILDELLGNMVLAPLPDPGPPSLAVAPEPCPQPLRSPSLDNPTPFPNLGPSENPLKRLLVPGEEWEFEVTAFYRGRQVFQQTISCPEGLRLVGSEVGDRTLPGWPVTLPDPGMSLTDRGVMSYVRHVLSCLGGGLALWRAGQWLWAQRLGHCHTYWAVSEELLPNSGHGPDGEVPKDKEGGVFDLGPFIVDLITFTEGSGRSPRYALWFCVGESWPQDQPWTKRLVMVKVVPTCLRALVEMARVGGASSLENTVDLHISNSHPLSLTSDQYKAYLQDLVEGMDFQGPGES

No constants are given. Whether binding was seen depends on the method and setting. Binding seen in cells or lysates may run through a third protein.

For the assay, the target named is T1, sentrin/SUMO-specific protease 7 (SENP7), wild type (UniProt Q9BQF6).
T1 sequence: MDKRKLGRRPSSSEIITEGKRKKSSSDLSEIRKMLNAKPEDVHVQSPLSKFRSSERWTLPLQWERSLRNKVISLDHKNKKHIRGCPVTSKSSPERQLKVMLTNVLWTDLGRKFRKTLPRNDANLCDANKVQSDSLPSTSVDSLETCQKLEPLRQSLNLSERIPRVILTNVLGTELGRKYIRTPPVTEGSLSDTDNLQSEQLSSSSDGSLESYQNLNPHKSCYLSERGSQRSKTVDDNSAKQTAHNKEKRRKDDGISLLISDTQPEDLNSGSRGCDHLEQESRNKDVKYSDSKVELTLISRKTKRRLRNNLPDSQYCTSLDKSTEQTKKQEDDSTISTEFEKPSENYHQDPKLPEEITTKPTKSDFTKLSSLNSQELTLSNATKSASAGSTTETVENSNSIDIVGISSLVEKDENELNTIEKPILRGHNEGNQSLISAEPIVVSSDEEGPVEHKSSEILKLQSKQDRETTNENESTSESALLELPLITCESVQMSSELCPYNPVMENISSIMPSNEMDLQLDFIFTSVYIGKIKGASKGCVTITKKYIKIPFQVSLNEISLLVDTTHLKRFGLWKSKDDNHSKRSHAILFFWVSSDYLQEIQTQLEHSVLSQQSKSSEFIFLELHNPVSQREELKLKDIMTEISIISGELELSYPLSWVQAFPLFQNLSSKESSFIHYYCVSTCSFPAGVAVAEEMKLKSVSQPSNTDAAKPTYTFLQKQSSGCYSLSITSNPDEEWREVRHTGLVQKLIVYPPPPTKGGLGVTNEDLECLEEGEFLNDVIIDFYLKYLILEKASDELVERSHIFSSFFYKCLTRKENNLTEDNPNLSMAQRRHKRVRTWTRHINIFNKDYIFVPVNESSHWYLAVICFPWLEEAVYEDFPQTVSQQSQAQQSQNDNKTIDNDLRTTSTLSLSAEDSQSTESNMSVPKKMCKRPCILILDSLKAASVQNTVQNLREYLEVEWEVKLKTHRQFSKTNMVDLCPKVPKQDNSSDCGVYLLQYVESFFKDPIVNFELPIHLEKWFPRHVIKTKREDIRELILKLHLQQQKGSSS
The assay can be described thus: co-IP; HEK293T cells transfected with the indicated plasmids; lysates in RIPA buffer (50 mM Tris-HCl pH 7.4, 150 mM NaCl, 1 mM EDTA, 1% Triton X-100, 0.1% SDS, 0.5% deoxycholate, 20 mM NEM); immunoprecipitated with anti-Flag antibody or Flag-beads (Fig 3F, 3G, 5I, S2D, S2E) or anti-Myc antibody (S2C), immunoblot; Fig 5I with or without co-expressed SUMO.
Take “stimulator of interferon genes (STING) (from UniProt Q86WV6 1-379)”: the binding result is “no binding”. With B1, the binding entry was “no binding”. In the case of B2 it was “no binding”.
